In patent publication US7514534:
These are yes or no findings as the source states them, for the method shown. Some binding calls cover weakened binding; strength is not graded here.

Protein sequences, listed by entry. Tags and fused reporters are not part of them. Lines headed by an entry give the natural chain unless they say otherwise; changes in a name come on top.
UniProt Q9NRE1: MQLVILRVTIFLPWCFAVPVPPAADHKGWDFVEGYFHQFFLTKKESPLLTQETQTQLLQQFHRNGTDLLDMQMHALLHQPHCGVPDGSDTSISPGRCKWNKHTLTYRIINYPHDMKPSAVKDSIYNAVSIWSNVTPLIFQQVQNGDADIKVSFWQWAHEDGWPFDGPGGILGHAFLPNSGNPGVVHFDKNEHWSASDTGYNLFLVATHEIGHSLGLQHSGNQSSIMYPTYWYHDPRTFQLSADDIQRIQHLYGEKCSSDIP

Target: MMP-26 catalytic domain, tagged with hexa-histidine (human) (UniProt Q9NRE1)
Test: MMP cross reactivity ELISA, IgG4 at 2 µg/ml

binding | Binder
binds | A12 (antibody, human IgG4, V domains shown) VH: EVQLLESGGGLVQPGGSLRLSCAASGFTFSAYWMDWVRQAPGKGLEWVSVIYPSGGSTNYADSVKGRFTISRDNSKNTLYLQMNSLRAEDTAVYYCAREGIAAAAPMDVWGKGTTVTVSS VL: DIQMTQSPGTLSLSPGERATLSCRASQSVSRSYLGWYQQKPGQAPRLLIYGASNRATGIPDRFSGSGSGTDFTLTISRLEPEDFAVYYCQQYGISPLTFGPGTKVDIKR
binds | B01 (antibody, human IgG4, V domains shown) VH: EVQLLESGGGLVQPGGSLRLSCAASGFTFSTYDMLWVRQAPGKGLEWVSSISPSGGSTSYADSVKGRFTISRDNSKNTLYLQLNSLRAEDTAVYYCAREKASDLSGTYSEALDHWGQGTLVTVSS VL: DIQMTQSPGTLSLSPGERATLSCRASQSVSSSYFAWYQQKPGQAPRLLIYDASSRATGIPDRFSGSGSGTDFTLTISRLEPEDFAVYYCQQYGSSPPMYTFGQGTKLEIKR
binds | C05 (antibody, human IgG4, V domains shown) VH: EVQLLESGGGLVQPGGSLRLSCAASGFTFSSYQMDWVRQAPGKGLEWVSRIVPSGGDTTYADSVKGRFTISRDNSKNTLYLQMNSLRAEDTAVYYCARHVYYDSSDYFPNPFDYWGQGTLVTVSS VL: QSELTQPPSVSGTPGQRVTISCSGSSSNIGSEYVYWFQQLPGTAPRLLIYRNDQRPSGVPDRFSGSKSGTSASLAISGLRSEDETDYYCTTWDDSLSGPVFGGGTKLTVLG
binds | A11 (antibody, human IgG4, V domains shown) VH: EVQLLESGGGLVQPGGSLRLSCAASGFTFSWYTMMWVRQAPGKGLEWVSRISPSGGHTLYADSVKGRFTISRDNSZNTLYLQMNSLRAEDTAVYYCARDTWDDYYDSSGYYNDFDYWGQGTLVTVSS VL: QSALTQPPSVSLAPGQTARITCGGNNIGTKSVHWYQQKPGQAPVLVVYDDSDRPSGIPERFSGSNSGNTATLTISRVEAGDEADYYCQVWDSGSDHQVFGGGTKLTVLG
binds | B11 (antibody, human IgG4, V domains shown) VH: EVQLLESGGGLVQPGGSLRLSCAASGFTFSPYFMFWVRQAPGKGLEWVSSIGSSGGDTSYADSVKGRFTISRDNSZNTLYLQMNSLRAEDTAVYYCARGLYRWGQGTLVTVSS VL: QSELTQPPSVSLAPGQTARITCGGNNIGTKSVHWYQQKPGQAPVLVVYDDSDRPSGIPERFSGSNSGNTATLTISRVEAGDEADYYCQVWDSGSDHQVFGGGTKLTVLG
binds | A05 (antibody, human IgG4, V domains shown) VH: EVQLLESGGGLVQPGGSLRLSCAASGFTFSVYSMNWVRQAPGKGLEWVSYIVPSGGNTPYADSVKGRFTISRDNSKNTLYLQMNSLRAEDTAVYYCARDGAATVDLDYWGQGTLVTVSS VL: DIQMTQSPSSLSLSPGERATLSCRASQSVSSYLAWYQQKPGQAPRLLIYDASNRATGIPARFSGSGSGTDFTLTISSLEPEDFAVYYCQQRSNWPRTFGGGTKVEIKR
binds | C01 (antibody, human IgG4, V domains shown) VH: EVQLLESGGGLVQPGGSLRLSCAASGFTFSNYGMSWVRQAPGKGLEWVSVIGPSGGITMYADSVKGRFTISRDNSKNTLYLQMNSLRAEDTAVYYCATGSSSGWYPNFDYWGQGTLVTVSS VL: DIQMTQSPSTLSASVGDRVTITCRASQSIGNWLAWYQQKPGEAPHLLIYQASSLEGGVPSRFSGSGSGTKFTLNISSLQPDDFATYYCQQYNSYSYTFGQGTKLDIKR
binds | C03 (antibody, human IgG4, V domains shown) VH: EVQLLESGGGLVQPGGSLRLSCAASGFTFSLYMMKWVRQAPGKGLEWVSVISSSGGYTQYADSVKGRFTISRDNSKNTLYLQMNNLRAEDTAVYYCARGWDVWGKGTTVTVSS VL: QSALTQPPSASGTPGQRVTISCSGSNSNIGGNIVIWLQQLPGTAPKLMIYDVSDRPSGVPDRFSGSKSGTSASLAISGLQSEDEADYYCAAWDDSLNGWVFGGGTKLTVLS
binds | B06 (antibody, human IgG4, V domains shown) VH: EVQLLESGGGLVQPGGSLRLSCAASGFTFSQYFMKWVRQAPGKGLEWVSSISPSGGLTQYADSVKGRFTISRDNSKNTLYLQMNSLRAEDTAVYYCARGGIEAPGSPSDYWGQGTLVTVSS VL: DIQMTQSPSFLSASVGDRVTITCRASQGISSYLAWYQQKPGKAPKLLIYAASTLQSGVPSRFSGSGSGTDFTLTISSLEPEDFATYYCQESYSTPFFTFGPGTKVDIRR
binds | C07 (antibody, human IgG4, V domains shown) VH: EVQLLESGGGLVQPGGSLRLSCAASGFTFSYYVMMWVRQAPGKGLEWVSVIRPSGGITTYADSVKGRFTISRDNSKNTLYLQTNSLRAEDTAVYYCAKIDYGGNSFYFDYWGQGTLVTVSS VL: DIQMTQSPSSLSASVGDRVTITCRASQSISNYLNWYQQRPGKAPKLLIYAASSLERGVPSRFSGSGSGTDFTLTISSLQSEDFATYYCQQSYSPPPLTFGGGTKLEIKR
binds | A10 (antibody, human IgG4, V domains shown) VH: EVQLLESGGGLVQPGGSLRLSCAASGFTFSAYRMFWVRQAPGKGLEWVSSIWPSGGTTSYADSVKGRFTISRDNSKNTLYLQMNSLRAEDTAVYYCARDRGYDSSGYFDYWGQGTLVTVSS VL: QSELTQPPSASGTPGQRVTISCSGGSSNIGSNYVSWYQQLPGTAPKLLIYNNNQRPSGVPDRFSGSKSGTSASLAISGLRSEDEADYYCAAWDDSLSSAVFGGGTQLTVLG
binds | B08 (antibody, human IgG4, V domains shown) VH: EVQLLESGGGLVQPGGSLRLSCAASGFTFSRYMMNWVRQAPGKGLEWVSVIWSSGGKTLYADSVKGRFTISRDNSKNTLYLQMKSLRAEDTAVYYCARGGYNNYYYSMDVWGQGTTVTVSS VL: QSELTQPHSVSGSPGKTVTISCTRSSGSIAGNYVQWYQQRPGSSPTTVIYEDNKRPSGVPDRFSGSIDSSSNSASLIISGLKTEDEADYYCHSYDTSNQVFGGGTKLTVLG
binds | A07 (antibody, human IgG4, V domains shown) VH: EVQLLESGGGLVQPGGSLRLSCAASGFTFSEYNMMWVRQAPGKGLEWVSVISPSGGGTLYADSVKGRFTISRDNSKNTLYLQMNSLRAEDTAVYYCARDLNNSSPPDSNDAFDIWGRGTMVTVSS VL: QSELTQPPSASGSPGQSVTISCTGTSSDVGGYNYVSWYQQHPDKAPKLLIYEVTQRPSGVPDRFSGSRSGNTASLTVSGLQAEDEADYYCSSYAGRNNLYVFGPGTKVTVLG
binds | A04 (antibody, human IgG4, V domains shown) VH: EVQLLESGGGLVQPGGSLRLSCAASGFTFSEYNMAWVRQAPGKGLEWVSRIGSSGGKTKYADSVKGRFTISRDNSKNTLYLQMNSLRAEDTAVYYCARDEAPDYGDDAEAFDIWGQGTMVTVSS VL: QSALTQPPSASGTPGQRVTISCSGGYSNMGSNYAHWYQQVPGTAPKLLIYNNNQRPSGVPDRFSGSKSGTSASLAISGLRSEDEADYYCAAWDENLSGPVFGTGTKVTVLG
binds | A08 (antibody, human IgG4, V domains shown) VH: EVQLLESGGGLVQPGGSLRLSCAASGFTFSVYDMPWVRQAPGKGLEWVSVIYPSGGFTRYADSVKGRFTISRDNSKNTLYLQMNSLRAEDTAVYYCAADPTIQLWAYYYGMDVWGQGTTVTVSS VL: QSVLTQPPSVSGTPGQRVTISCSGGYPNMGSNYAHWYQQLPGTAPKLLIYNDNQRPSGVPDRFSGSKSGTSASLAISGLRSEDEADYYCAAWDDSLSGPVFGGGTKLTVLG
binds | H6-orig (antibody, human IgG4, V domains shown) VH: EVQLLESGGGLVQPGGSLRLSCAASGFTFSQYWMNWVRQAPGKGLEWVSGIGPSGGITYYADSVKGRFTISRDNSKNTLYLQMNSLRAEDTAVYYCARGEEDGYNSDYWGQGTLVTVSS VL: QSELTQPPSASGSPGQSVTISCTGTSSDVGAYNYVSWYQQHPGKAPKLIIYEVNKRPSGVPDRFSASKSGNTASLTVSGLQAEDEADYYCNSYAGSNSLIFGGGTKLTVLG
binds | A03 (antibody, human IgG4, V domains shown) VH: EVQLLESGGGLVQPGGSLRLSCAASGFTFSIYSMDWVRQAPGKGLEWVSSIYSSGGATRYADSVKGRFTISRDNSKNTLYLQMNSLRAEDTAVYYCARCSWLQLVPMHPWGQGTLVTVSS VL: QSALTQPPSASGTPGQRVTISCSGGSSNIGSNFVYWYRQLPGTAPKLLIYRNYQRPSGVPDRFSGSKSGTSASLAISGLLSEDEADYYCAAWDDNVGGVFGSGTKVTVLG
binds | A09 (antibody, human IgG4, V domains shown) VH: EVQLLESGGGLVQPGGSLRLSCAASGFTFSWYDMYWVRQAPGKGLEWVSSIYSSGGYTAYADSVKGRFTISRDNSKNTLYLQMNSLRAEDTAVYYCAKDRDPCSRTTCYNWFDPWGQGTLVTVSS VL: QSELTQPPSASGTPGQRVTISCSGGSSNIGSNFVYWYRQLPGTAPKLLIYRNYQRPSGVPDRFSGSKSGTSASLAISGLLSEDEADYYCAAWDDNVGGVFGSGTKVTVLG
binds | A01 (antibody, human IgG4, V domains shown) VH: EVQLLESGGGLVQPGGSLRLSCAASGFTFSAYNMFWVRQAPGKGLEWVSGIGSSGGIAPYADSVKGRFTISRDNSKNTLYLQMNSLRAEDTAVYYCARAAYEVENWFDPWGQGTLVTVSS VL: DIQMTQSPGTLSLSPGERATLSCRASQIVRSTYLAWYQQKPGQAPRLLIYGTSSRATGVPDRFSGSGSGTDFTLTISGLEPEDFALYYCQRYGDSPPITFGQGTRLEITR
binds | C08 (antibody, human IgG4, V domains shown) VH: EVQLLESGGGLVQPGGSLRLSCAASGFTFSYYEMMWVRQAPGKGLEWVSSISPSGGPTMYADSVKGRFTISRDNSKNTLYLQMNSLRAEDTGVYYCARKMGRVGYCSSTSCYRDDYYGMDVWGQGTTVTVSS VL: DIQMTQSPPSLSALVGDRVTITCRASQSISRYVNWYQQKPGKAPKVLIYAASIVENGVPSRFSGSGSGTDFSLTISSLQPEDFATYYCQQTYSTPLTFGGGTKLAIKR
binds | C06 (antibody, human IgG4, V domains shown) VH: EVQLLESGGGLVQPGGSLRLSCAASGFTFSFYFMFWVRQAPGKGLEWVSYIGPSGGPTNYADSVKGRFTISRDNSKNTLYLQMNSLRAEDTAVYYCARHYPREYQLPGSFDPWGQGTLVTVSS VL: DIQMTQSPSSLSASVGDRVTITCRASQGISNYLAWYQQKPGKVPKLLIYPASTLQSGVPSRFSGSGSGTDFTLTISSLQPEDFATYYCQQADSFPPTFGGGTTVEIRR
